Laboratory results taken from patent US8487006B2, “Method of enhancing TGF-β signalling” (Auxagen, Inc., priority 2008, dated 2013).

Test system: wild-type mice
Test: Wild-type mice treated with dynasore (organ pathology, coronary artery histology, TβR-II staining, plasma cholesterol)
Type: in vivo
Details: wild-type mice treated with dynasore 1 mg/kg every two days for 8 weeks (120±10 with vehicle only)
Protocol: Wild-type and ApoE-null mice were treated with vehicle only (a, c) or 1 mg/kg dynasore (b, d) every two days for 8 weeks. The coronary arteries were removed from the animals and subjected to histological analysis by H & E staining (A) and indirect immunofluorescent staining for TβR-II(B). The asterisk (*) indicates the location of the lumen in coronary arteries. The arrow indicates the immunofluorescent staining of TβR-II in the aortic endothelium.
We hypothesize that TGF-β enhancers such as inhibitors of clathrin-dependent endocytosis may ameliorate atherosclerosis caused by cholesterol-induced suppression of TGF-β responsiveness in vascular cells^3,12. To test our hypothesis, we treated hypercholesterolemic ApoE-null mice with dynasore (1 mg/kg body weight) via intraperitoneal administration every two days for 8 weeks. We chose dynasore for two reasons. […] At 50 μM, it enhances TGF-β-stimulated expression of PAI-1 in these cell types by ˜4-5 fold, 2) Dynasore is the only inhibitor tested which alone is capable of stimulating PAI-1 expression. […] The plasma levels of cholesterol in wild-type mice treated with either vehicle only or dynasore were 120±10 and 125±20 mg/dl, respectively.
However, no TβR-II staining was found in the aortic endothelium and smooth muscle of coronary arteries in ApoE-null mice treated with vehicle only (FIG. 4Bc).

With `O=C(N/N=C/c1ccc(O)c(O)c1)c1cc2ccccc2cc1O` [dynasore] the “plasma levels of cholesterol” value was 125 ± 20 mg/dL.
